Consider three substances from paper PMC6932820.

By UniProt entry, the sequences of proteins in these tests, tags left out.
UniProt Q9QR71: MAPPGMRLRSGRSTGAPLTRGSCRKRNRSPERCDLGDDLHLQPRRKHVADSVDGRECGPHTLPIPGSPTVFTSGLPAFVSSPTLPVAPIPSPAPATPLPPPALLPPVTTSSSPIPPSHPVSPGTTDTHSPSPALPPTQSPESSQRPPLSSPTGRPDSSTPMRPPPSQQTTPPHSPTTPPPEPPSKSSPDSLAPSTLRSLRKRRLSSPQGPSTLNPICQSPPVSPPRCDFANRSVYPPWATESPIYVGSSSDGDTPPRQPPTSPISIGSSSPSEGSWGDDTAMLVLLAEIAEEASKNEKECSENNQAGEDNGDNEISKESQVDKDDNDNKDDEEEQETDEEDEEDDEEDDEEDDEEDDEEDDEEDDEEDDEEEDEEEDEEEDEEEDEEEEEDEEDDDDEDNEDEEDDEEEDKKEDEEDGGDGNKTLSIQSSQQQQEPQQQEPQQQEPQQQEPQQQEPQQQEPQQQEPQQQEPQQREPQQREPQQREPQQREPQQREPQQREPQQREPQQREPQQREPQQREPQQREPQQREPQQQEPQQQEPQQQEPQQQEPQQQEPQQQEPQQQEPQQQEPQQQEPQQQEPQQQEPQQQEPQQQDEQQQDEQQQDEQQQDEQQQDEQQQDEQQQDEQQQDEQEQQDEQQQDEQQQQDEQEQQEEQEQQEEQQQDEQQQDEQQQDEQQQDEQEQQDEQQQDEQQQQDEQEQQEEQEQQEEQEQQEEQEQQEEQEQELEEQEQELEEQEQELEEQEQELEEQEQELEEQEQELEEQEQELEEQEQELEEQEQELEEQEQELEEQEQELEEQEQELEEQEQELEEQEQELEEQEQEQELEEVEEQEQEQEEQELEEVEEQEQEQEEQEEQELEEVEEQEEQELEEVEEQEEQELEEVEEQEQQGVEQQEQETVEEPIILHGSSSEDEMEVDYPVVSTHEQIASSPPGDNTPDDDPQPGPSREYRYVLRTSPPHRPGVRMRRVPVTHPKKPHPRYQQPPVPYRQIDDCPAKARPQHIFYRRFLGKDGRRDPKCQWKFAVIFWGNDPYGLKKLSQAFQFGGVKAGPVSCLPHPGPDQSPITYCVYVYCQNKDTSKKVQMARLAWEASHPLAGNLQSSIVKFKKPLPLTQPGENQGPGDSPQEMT
UniProt P61956: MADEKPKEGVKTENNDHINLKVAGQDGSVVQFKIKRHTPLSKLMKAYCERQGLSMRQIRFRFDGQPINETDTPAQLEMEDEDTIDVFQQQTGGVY
UniProt Q13263: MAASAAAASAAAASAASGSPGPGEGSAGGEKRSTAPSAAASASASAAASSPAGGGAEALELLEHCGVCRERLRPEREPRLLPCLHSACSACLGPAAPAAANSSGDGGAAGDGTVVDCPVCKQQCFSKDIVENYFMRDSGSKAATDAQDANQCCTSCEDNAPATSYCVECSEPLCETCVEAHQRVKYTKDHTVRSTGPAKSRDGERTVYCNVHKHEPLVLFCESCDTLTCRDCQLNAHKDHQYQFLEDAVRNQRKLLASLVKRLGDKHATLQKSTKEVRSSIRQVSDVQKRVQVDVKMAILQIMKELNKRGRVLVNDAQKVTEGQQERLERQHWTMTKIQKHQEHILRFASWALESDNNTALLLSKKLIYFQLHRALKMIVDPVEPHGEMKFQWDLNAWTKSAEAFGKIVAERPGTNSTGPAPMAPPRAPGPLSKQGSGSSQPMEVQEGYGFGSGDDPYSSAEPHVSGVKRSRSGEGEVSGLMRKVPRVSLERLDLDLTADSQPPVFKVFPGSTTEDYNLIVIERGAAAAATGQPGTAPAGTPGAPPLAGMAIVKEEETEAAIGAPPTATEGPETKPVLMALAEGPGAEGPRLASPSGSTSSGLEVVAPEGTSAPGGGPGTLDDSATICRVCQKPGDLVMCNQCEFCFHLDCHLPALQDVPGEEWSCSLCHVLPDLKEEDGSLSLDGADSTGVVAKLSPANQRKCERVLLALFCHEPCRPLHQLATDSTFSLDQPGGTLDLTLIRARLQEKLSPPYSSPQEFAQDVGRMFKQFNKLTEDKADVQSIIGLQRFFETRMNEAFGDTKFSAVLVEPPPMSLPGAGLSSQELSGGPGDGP

Assay [1] concerns the target myc-tagged LANA (Kaposi's sarcoma-associated herpesvirus (KSHV)) (UniProt Q9QR71). As to the kind of experiment: co-IP; HEK293 cells transfected with LANA-myc and FLAG-SUMO2, untreated or treated with DMSO, Cambogin or Garcimultiflorone H (100 nM); RIPA lysates with NEM; IP and immunoblot with the indicated antibodies.
The next assay has as its target FLAG-tagged SUMO2 (UniProt P61956). The assay is described as above.
Assay [2] addresses endogenous LANA in PEL cells (Kaposi's sarcoma-associated herpesvirus (KSHV) (endogenous in BCP1)) (UniProt Q9QR71). As to the kind of experiment: co-IP; endogenous proteins in BCP1 (PEL) cells, untreated or treated with DMSO or Cambogin (100, 500 nM) for 48 h; IP and immunoblot with the indicated antibodies.

These are yes or no findings as the source states them, for the method shown. Binding seen in cells or lysates may run through a third protein. Some binding calls cover weakened binding; strength is not graded here.

For the substance “FLAG-tagged SUMO2 (from UniProt P61956 1-95)”, the binding result in assay [1] was “binds”.

For the substance KAP1 (from UniProt Q13263 1-835), the binding result (in assay [1]; with FLAG-tagged SUMO2) was “binds” in each case.

“endogenous SUMO2 in PEL cells (from UniProt P61956 1-95)”: the binding entry in assay [2] is recorded as “binds”.
